From the supplement of paper PMC6078165

Tested on: MDAMB231
Assay: relative JC-1 red fluorescence (viability) vs pre-drug, coculture with fibroblast (fraction); higher = more viable cancer cells
Experimental: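 JC-1 labelled TNBC cells cocultured 1:1 (1,500 cells each) with CellTrace Violet stained primary or stromal fibroblasts in 384-well plates in FluoroBrite medium, treated with one of 42 anticancer drugs at 0.1, 1, 10 or 100 uM. JC-1 red fluorescence (mitochondrial integrity in cancer cells only) was read by plate reader every 8 h for 72 h. Values are normalised to each well's pre-drug value. The stock of one drug was tenfold lower, so its dose labels may be too high.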

CO[C@H]1C[C@@H]2CC[C@@H](C)[C@@](O)(O2)C(=O)C(=O)N2CCCC[C@H]2C(=O)O[C@H]([C@H](C)C[C@@H]2CC[C@@H](OCCO)[C@H](OC)C2)CC(=O)[C@H](C)/C=C(\C)[C@@H](O)[C@@H](OC)C(=O)[C@H](C)C[C@H](C)/C=C/C=C/C=C/1C [Everolimus]
relative JC-1 red fluorescence
Conditions	8 h	16 h	24 h	32 h	40 h	48 h	56 h	64 h	72 h
0.1 µM, coculture fibroblast: C12385	0.805	0.756	0.6727	0.6747	0.6204	0.59	0.559	0.564	0.532
0.1 µM, coculture fibroblast: H6013	0.873	0.807	0.758	0.7591	0.738	0.717	0.704	0.691	0.662
0.1 µM, coculture fibroblast: H6019	0.7627	0.714	0.651	0.642	0.611	0.59	0.566	0.566	0.543
0.1 µM, coculture fibroblast: H6076	0.8479	0.766	0.719	0.6897	0.6617	0.631	0.616	0.606	0.602
0.1 µM, coculture fibroblast: H6231	0.948	0.856	0.775	0.722	0.682	0.654	0.621	0.601	0.578
0.1 µM, coculture fibroblast: HADF	0.86	0.824	0.773	0.749	0.713	0.655	0.6618	0.643	0.609
0.1 µM, coculture fibroblast: HCFa	0.8904	0.83	0.7844	0.7565	0.7117	0.6732	0.658	0.63	0.592
0.1 µM, coculture fibroblast: HCPF	0.894	0.78	0.71	0.678	0.623	0.581	0.546	0.52	0.498
0.1 µM, coculture fibroblast: HHSteC	0.859	0.906	0.841	0.799	0.761	0.723	0.695	0.667	0.637
0.1 µM, coculture fibroblast: HMF	0.883	0.798	0.72021	0.686	0.64	0.601	0.562	0.545	0.524
0.1 µM, coculture fibroblast: HPFa	0.9438	0.89	0.833	0.7808	0.7681	0.7298	0.6938	0.6741	0.637
0.1 µM, coculture fibroblast: HUF	0.837	0.703	0.708	0.6	0.543	0.525	0.483	0.489	0.469
0.1 µM, coculture fibroblast: Hs5	0.923	0.853	0.799	0.755	0.711	0.664	0.627	0.591	0.566
0.1 µM, coculture fibroblast: Hs27A	0.87	0.797	0.746	0.729	0.6747	0.601	0.6215	0.607	0.581
0.1 µM, coculture fibroblast: Hs343T	0.839	0.706	0.639	0.6123	0.571	0.522	0.479	0.459	0.444
0.1 µM, coculture fibroblast: WS1	0.765	0.713	0.655	0.632	0.585	0.572	0.527	0.529	0.512
1 µM, coculture fibroblast: C12385	0.763	0.794	0.677	0.707	0.667	0.649	0.613	0.607	0.592
1 µM, coculture fibroblast: H6013	0.923	0.866	0.84	0.844	0.805	0.791	0.791	0.773	0.75
1 µM, coculture fibroblast: H6019	0.734	0.646	0.653	0.597	0.562	0.572	0.5344	0.548	0.517
1 µM, coculture fibroblast: H6076	0.911	0.855	0.754	0.885	0.846	0.822	0.807	0.802	0.801
1 µM, coculture fibroblast: H6231	0.92234	0.8432	0.798	0.7527	0.7039	0.68376	0.652	0.636	0.61301
1 µM, coculture fibroblast: HADF	0.884	0.855	0.813	0.79	0.762	0.723	0.718	0.702	0.655
1 µM, coculture fibroblast: HCFa	0.916	0.841	0.8263	0.8103	0.7761	0.71776	0.7009	0.676	0.65
1 µM, coculture fibroblast: HCPF	0.84	0.808	0.84	0.818	0.764	0.72	0.677	0.637	0.609
1 µM, coculture fibroblast: HHSteC	0.9257	0.865	0.84	0.822	0.803	0.782	0.752	0.741	0.711
1 µM, coculture fibroblast: HMF	0.923	0.862	0.8115	0.782	0.742	0.71	0.6832	0.661	0.646
1 µM, coculture fibroblast: HPFa	0.946	0.9018	0.847	0.8	0.78	0.74	0.705	0.689	0.649
1 µM, coculture fibroblast: HUF	0.8051	0.717	0.719	0.623	0.566	0.547	0.502	0.497	0.472
1 µM, coculture fibroblast: Hs5	0.931	0.866	0.839	0.809	0.773	0.74	0.717	0.698	0.685
1 µM, coculture fibroblast: Hs27A	0.829	0.792	0.77	0.768	0.743	0.728	0.735	0.741	0.704
1 µM, coculture fibroblast: Hs343T	0.888	0.807	0.758	0.729	0.686	0.647	0.599	0.583	0.554
1 µM, coculture fibroblast: WS1	0.748	0.706	0.6896	0.627	0.593	0.583	0.549	0.556	0.544

Values are relative to the signal before dosing, not to a vehicle control; the signal also falls without drug.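 Fibroblast labels denote human fibroblasts, mainly primary ones from uterus (C12385, HUF), lung (H6013), bone (Hs27A), adrenal (HADF) and skin (WS1), plus mammary HMF and breast cancer-associated Hs343T. Cancer cells are basal-like or mesenchymal-like triple-negative breast cancer lines. A hit is a response shift exceeding 3x replicate standard deviation. The tissue of the other fibroblasts is not given here.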
